From US20130345397 (published 2013)

Legend:
[1] = general procedure: Fmoc solid-phase peptide synthesis; Wang resin; HATU-DIPEA; conditions: whole synthesis, RP-HPLC (Agilent, Vydac C18 analytical column), scale 200 umol
[2] = general procedure: Fmoc solid-phase peptide synthesis; HATU-DIPEA; conditions: whole synthesis; for crude HPLC purity / final HPLC purity: RP-HPLC (Agilent, Vydac C18 analytical column)
[3] = general procedure: Fmoc solid-phase peptide synthesis; Fmoc-Gly-Wang resin; HATU-DIPEA; conditions: whole synthesis, RP-HPLC (Agilent, Vydac C18 analytical column), scale 200 umol
[4] = general procedure: Fmoc solid-phase peptide synthesis; Fmoc-Gly-PEG-PS resin; HATU-DIPEA; conditions: whole synthesis, RP-HPLC (Agilent, Vydac C18 analytical column), scale 200 umol
[5] = general procedure: Fmoc solid-phase peptide synthesis; Fmoc-Asp(OtBu)-Wang resin; HATU-DIPEA; conditions: whole synthesis, RP-HPLC (Agilent, Vydac C18 analytical column), scale 100 umol
[6] = general procedure: Fmoc solid-phase peptide synthesis; Rink Amide resin; HATU-DIPEA; conditions: whole synthesis, RP-HPLC (Agilent, Vydac C18 analytical column), scale 100 umol
[7] = general procedure: Fmoc solid-phase peptide synthesis; Fmoc-Asn(Trt)-PEG-PS; HATU-DIPEA; conditions: whole synthesis, RP-HPLC (Agilent, Vydac C18 analytical column), scale 0.20 mmol

Substance: AgI-API-AgI-SL-c[Das-API]-SL-c[Das-API]-SLG
- crude HPLC purity [1]: 71%

Substance: AgI-API-AgI-SL-c[Das-API]-SLG
- crude HPLC purity [1]: 89%

Substance: AgI-API-AgI-SR-c[Das-API]-SR-c[Das-API]-SRG
- crude HPLC purity [2]: 60%

Substance: AgI-API-AgI-SR-c[Das-API]-SRG
- crude HPLC purity [2]: 75%

Substance: AgI-API-Nva-SLG
- crude HPLC purity [2]: 94%

Substance: AgI-SL-AgI-API-Nva-SLG
- crude HPLC purity [2]: 90%

Substance: Agl-API-Agl-SLG
- crude HPLC purity [3]: 92%

Substance: c[Das-API]-SL-c[Das-API]-SL-c[Das-API]-SLG
- isolated yield [2]: 3%
- final HPLC purity [2]: >99%

Substance: c[Das-API]-SR-c[Das-API]-SR-c[Das-API]-SRG
- isolated yield [2]: 2%
- final HPLC purity [2]: 90%

Substance: desA1-5-[A6,11]-Agl-[A7]-Cys(^tBu)-[A20]-Cys(Acm) Human Insulin Glargine A-chain
- crude HPLC purity [4]: 70%

Substance: desA1-5-[A6,11]-Agl-[A7]-Cys(^tBu)-[A20]-Cys(Acm)-[A21]-Asp Human Insulin A-Chain
- crude HPLC purity [5]: 70%

Substance: desA1-5-[A6,11]-Agl-[A7]-Cys(^tBu)-[A20]-Cys(Acm)-[A21]-β-Asn Human Insulin A-Chain
- crude HPLC purity [6]: 85%

Substance: desm-5-[A6,11]-Agl-[A7]-Cys(^tBu)-[A20]-Cys(Acm) Insulin A-chain
- crude HPLC purity [7]: 80%
